Results published in PubChem BioAssay AID234 (DTP/NCI, 2004).
The list is a part of this screen's results and no random one: it is rich in T/C values a quarter to a half above the control, in often repeated tests (any T/C) and in doses without a T/C. Further doses and runs are listed elsewhere. T/C is the treated group as % of the vehicle group. Schedules are NCI's codes, read here as Q, the interval in days (D) or hours (H), X, the number of doses. Some schedules carry Z or #; the key to these is not given. Some T/C values are followed by the survivors on the day toxicity was checked, most often the fifth; without a count, all were alive then. Some entries give survivors of the animals treated and no T/C: the source holds a T/C of zero for them, seemingly a mark for toxic or unscored doses. Survivors were counted at the toxicity check, usually on the fifth day, unless a day is given; later deaths do not show. Some doses were run more than once; the results are listed from low to high. Brackets with × count equal records among those shown.

Test system: C3AKF1 mice, hamster liver cystadenocarcinoma s.c., tumor weight T/C
Assay: NCI In Vivo Anticancer Drug Screen. Data for tumor model Cystadenocarcinoma, Liver (No. 1) (Hamster) (subcutaneous) in C3AKF1 (CHKRF1) mice
Conditions: T/C endpoint: mean tumor weight, higher T/C = larger tumour; for T/C: evaluated on day 15
Protocol: The antitumor activity of compounds was measured in mice bearing transplantable tumors. Survival or tumor size were measured and the results are expressed as the measurement made in the treated group (T) divided by the measurement made in the vehicle treated control group (C). The tumor model used in this assay is Cystadenocarcinoma, Liver (No. 1) (Hamster) (subcutaneous) in C3AKF1 (CHKRF1) mice

[1] = dose: 75.0 mg/kg/injection, schedule: Q01DX010 (ip), vehicle: carboxymethylcellulose (CMC)
[2] = dose: 150.0 mg/kg/injection, schedule: Q01DX010 (ip), vehicle: carboxymethylcellulose (CMC)
[3] = dose: 500.0 mg/kg/injection, schedule: Q01DX010 (ip), vehicle: carboxymethylcellulose (CMC)
[4] = dose: 1000.0 mg/kg/injection, schedule: Q01DX010 (ip), vehicle: carboxymethylcellulose (CMC)
[5] = dose: 7.5 mg/kg/injection, schedule: Q#A X010 (ip), vehicle: carboxymethylcellulose (CMC)
[6] = dose: 15.5 mg/kg/injection, schedule: Q#A X010 (ip), vehicle: carboxymethylcellulose (CMC)
[7] = dose: 31.0 mg/kg/injection, schedule: Q#A X010 (ip), vehicle: carboxymethylcellulose (CMC)
[8] = dose: 62.5 mg/kg/injection, schedule: Q#A X010 (ip), vehicle: carboxymethylcellulose (CMC)
[9] = dose: 125.0 mg/kg/injection, schedule: Q#A X010 (ip), vehicle: carboxymethylcellulose (CMC)
[10] = dose: 250.0 mg/kg/injection, schedule: Q#A X010 (ip), vehicle: carboxymethylcellulose (CMC)
[11] = dose: 80.0 mg/kg/injection, schedule: Q01DX010 (ip), vehicle: carboxymethylcellulose (CMC)
[12] = dose: 160.0 mg/kg/injection, schedule: Q01DX010 (ip), vehicle: carboxymethylcellulose (CMC)
[13] = dose: 200.0 mg/kg/injection, schedule: Q01DX010 (ip), vehicle: carboxymethylcellulose (CMC)
[14] = dose: 400.0 mg/kg/injection, schedule: Q01DX010 (ip), vehicle: carboxymethylcellulose (CMC)
[15] = dose: 600.0 mg/kg/injection, schedule: Q01DX010 (ip), vehicle: carboxymethylcellulose (CMC)
[16] = dose: 40.0 mg/kg/injection, schedule: Q01DX010 (ip), vehicle: carboxymethylcellulose (CMC)

Clc1ccc2c(Cl)ncnc2c1
survivor count (dose: 19.0 mg/kg/injection, schedule: Q01DX010 (ip), vehicle: carboxymethylcellulose (CMC)): 4 of 7 | survivor count (dose: 37.5 mg/kg/injection, schedule: Q01DX010 (ip), vehicle: carboxymethylcellulose (CMC)): 0 of 7 | survivor count [1]: 0 of 7 | survivor count [2]: 0 of 7

O=CC(O)CO (stereo not drawn)
T/C [3]: 131 % of control [5 of 7 alive] | survivor count [4]: 1 of 7

COC(=O)/C=C\C(=O)O (tested in a mixture with another compound)
T/C (dose: 1.5 mg/kg/injection, schedule: Q#A X020 (ip), vehicle: carboxymethylcellulose (CMC)): 148 % of control | survivor count [5]: 0 of 6 | survivor count [6]: 2 of 6 | survivor count [7]: 0 of 6 | survivor count [8]: 0 of 6 | survivor count [9]: 0 of 6 | survivor count [10]: 0 of 6

Nc1nc(SCc2ccccc2)c2ncn(C3CCCC3)c2n1
survivor count [3]: 3 of 6 | survivor count (dose: 750.0 mg/kg/injection, schedule: Q01DX010 (ip), vehicle: carboxymethylcellulose (CMC)): 0 of 6 | T/C [4]: 127 % of control

Cn1c(=O)c2[nH]c(CCCc3nc4c([nH]3)c(=O)n(C)c(=O)n4C)nc2n(C)c1=O
survivor count [11]: 2 of 6 | survivor count [12]: 3 of 6

CCC(=O)NC1=C(N2CC2)C(=O)C(NC(=O)CC)=C(N2CC2)C1=O
survivor count (dose: 2.4 mg/kg/injection, schedule: Q01DX010 (ip), vehicle: saline): 2 of 7 | survivor count (dose: 4.8 mg/kg/injection, schedule: Q01DX010 (ip), vehicle: saline): 0 of 7

CC(CCc1cccc2ccccc12)(C(=O)O)C(=O)O
survivor count [13]: 2 of 6 | survivor count [14]: 0 of 6

CC(C)(c1ccccc1)c1ccc(O)cc1
survivor count [1]: 3 of 7 | survivor count [2]: 0 of 7 | survivor count (dose: 300.0 mg/kg/injection, schedule: Q01DX010 (ip), vehicle: carboxymethylcellulose (CMC)): 0 of 7

Nc1ncnc2c1ncn2C1CCCO1 (stereo not drawn)
survivor count [13]: 3 of 6 | survivor count [14]: 1 of 6 | survivor count [15]: 0 of 6

CC1(C)N=C(N)N=C(N)N1c1cccc(Br)c1
survivor count (dose: 10.0 mg/kg/injection, schedule: Q01DX010 (ip), vehicle: carboxymethylcellulose (CMC)): 1 of 6 and 3 of 7 | survivor count (dose: 16.0 mg/kg/injection, schedule: Q01DX010 (ip), vehicle: carboxymethylcellulose (CMC)): 3 of 6 | survivor count (dose: 25.0 mg/kg/injection, schedule: Q01DX010 (ip), vehicle: carboxymethylcellulose (CMC)): 1 of 6 | survivor count (dose: 37.0 mg/kg/injection, schedule: Q01DX010 (ip), vehicle: carboxymethylcellulose (CMC)): 0 of 6

CCOC(=O)C(Cc1ccc(N(CCCl)CCCl)cc1)NC=O (stereo not drawn)
survivor count [11]: 1 of 6 | survivor count [12]: 0 of 6

CCC[CH2][Sn]([CH2]CCC)([CH2]CCC)[O]C(=O)CC[S][Sn]([CH2]CCC)([CH2]CCC)[CH2]CCC
survivor count (dose: 48.0 mg/kg/injection, schedule: Q01DX010 (ip), vehicle: saline): 1 of 7

CC(=O)NCCSC(=O)C(=O)SCCNC(C)=O
survivor count [13]: 3 of 6

CCCC(=O)NC1=C(N2CC2)C(=O)C(NC(=O)CCC)=C(N2CC2)C1=O
survivor count (dose: 1.7 mg/kg/injection, schedule: Q01DX010 (ip), vehicle: saline): 2 of 7 | survivor count (dose: 4.0 mg/kg/injection, schedule: Q01DX010 (ip), vehicle: saline): 0 of 5 | survivor count (dose: 6.0 mg/kg/injection, schedule: Q01DX010 (ip), vehicle: saline): 0 of 7

CCCCCCCCCCCCn1c(C)nc2ccccc21
survivor count (dose: 1.0 mg/kg/injection, schedule: Q01DX010 (ip), vehicle: carboxymethylcellulose (CMC)): 3 of 6 | T/C (dose: 4.0 mg/kg/injection, schedule: Q01DX010 (ip), vehicle: carboxymethylcellulose (CMC)): 134 % of control

O=C1C=CC(=O)O1 (tested in a mixture with another compound)
survivor count [5]: 3 of 6 | survivor count (dose: 7.5 mg/kg/injection, schedule: Q#A X020 (ip), vehicle: carboxymethylcellulose (CMC)): 3 of 6 | survivor count (dose: 15.0 mg/kg/injection, schedule: Q#A X020 (ip), vehicle: carboxymethylcellulose (CMC)): 1 of 6 | survivor count [6]: 0 of 6 and 2 of 6 | T/C [7]: 131 % of control | survivor count [7]: 0 of 6, 1 of 6, 2 of 6 | survivor count [8]: 0 of 6, 1 of 6, 3 of 6 | survivor count [9]: 0 of 6 (2×) and 2 of 6 | survivor count [10]: 0 of 6 (3×)

COc1cc(OC)c(OC)cc1/C=C\c1ccnc2ccccc12
survivor count [3]: 4 of 7

CNC=O
survivor count (dose: 400.0 mg/kg/injection, schedule: Q01DX010 (ip), vehicle: saline): 1 of 6

O=S(=O)(O)C(Nc1ccccc1)c1ccccc1 (stereo not drawn)
survivor count (dose: 800.0 mg/kg/injection, schedule: Q01DX010 (ip), vehicle: water): 2 of 6

Nc1ccc2ccccc2c1N=Nc1ccccc1
survivor count (dose: 250.0 mg/kg/injection, schedule: Q01DX010 (ip), vehicle: carboxymethylcellulose (CMC)): 3 of 6 | survivor count [3]: 0 of 6

CCCn1cnc2c(SCc3ccccc3Cl)nc(N)nc21
T/C (dose: 50.0 mg/kg/injection, schedule: Q01DX010 (ip), vehicle: carboxymethylcellulose (CMC)): 131 % of control | survivor count (dose: 800.0 mg/kg/injection, schedule: Q01DX010 (ip), vehicle: carboxymethylcellulose (CMC)): 4 of 7

CC1CC(C)OS(=O)O1 (stereo not drawn)
survivor count (dose: 100.0 mg/kg/injection, schedule: Q01DX010 (ip), vehicle: saline): 0 of 6 | survivor count (dose: 150.0 mg/kg/injection, schedule: Q01DX010 (ip), vehicle: saline): 0 of 6

CC(C)CCSc1nc(N)nc2nc[nH]c12
survivor count (dose: 360.0 mg/kg/injection, schedule: Q01DX010 (ip), vehicle: carboxymethylcellulose (CMC)): 0 of 6

Cc1ccc(N2CCN(CCCN3CCN(c4ccc(Cl)cc4)CC3)CC2)cc1
survivor count (dose: 60.0 mg/kg/injection, schedule: Q01DX010 (ip), vehicle: carboxymethylcellulose (CMC)): 3 of 6

Cc1nc(N)nc(N)c1-c1ccc(Cl)c(Cl)c1
survivor count (dose: 6.0 mg/kg/injection, schedule: Q01DX010 (ip), vehicle: carboxymethylcellulose (CMC)): 0 of 6

CSc1ncc(Br)c(Sc2nc(N)nc3nc[nH]c23)n1
survivor count (dose: 18.0 mg/kg/injection, schedule: Q01DX010 (ip), vehicle: carboxymethylcellulose (CMC)): 4 of 7 | survivor count [16]: 1 of 7

O=C1C=Cc2ccc(O)cc2C1=O
survivor count [16]: 1 of 7 | survivor count [11]: 0 of 7

O=C(O)Cc1ccc(C2CCCCC2)cc1
survivor count [15]: 1 of 7 | survivor count (dose: 1200.0 mg/kg/injection, schedule: Q01DX010 (ip), vehicle: carboxymethylcellulose (CMC)): 0 of 7
